{"source": "PubChem BioAssay AID504808, Drosophila RNAi Screening Center | 2011", "aim": "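Fly genes required to hold E2F transcription in check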 (primary screen)", "system": "Drosophila S2 cells", "reagent": "long dsRNA against Drosophila genes", "measured": "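Firefly luciferase driven by E2F sites, normalised to Renilla luciferase on the same minimal promoter, measured by plate reader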", "scale": "E2F firefly: higher = more E2F reporter activity; Renilla normaliser: higher = more normaliser reporter signal", "active means": "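Called active if the normalised E2F reporter went up by over 50%; the cutoff is arbitrary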", "note": "The screen tested about 21,000 reagents; below is an unselected part of those that have a named target and a result. Over the whole deposit, 18 (0.084%) were called active. 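Raw counts without plate normalisation, one of two replicates; the ratio scores behind the calls were not deposited.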 The numbers tell different reagents against one gene apart. Reagent sequences are not shown. Not given: the amount of reagent, the time to read-out."}
{"Target gene":"CG33061","dsRNA no.":1,"E2F firefly, rep 1":1.82e5,"Renilla normaliser, rep 1":7481,"outcome":"inactive"}
{"Target gene":"Syx18","dsRNA no.":1,"E2F firefly, rep 1":66870,"Renilla normaliser, rep 1":4280,"outcome":"inactive"}
{"Target gene":"Shark","dsRNA no.":1,"E2F firefly, rep 1":74295,"Renilla normaliser, rep 1":2944,"outcome":"inactive"}
{"Target gene":"Eato","dsRNA no.":1,"E2F firefly, rep 1":89004,"Renilla normaliser, rep 1":3575,"outcome":"inactive"}
{"Target gene":"Eato","dsRNA no.":2,"E2F firefly, rep 1":1.11e5,"Renilla normaliser, rep 1":4512,"outcome":"inactive"}
{"Target gene":"CG1622","dsRNA no.":1,"E2F firefly, rep 1":7718,"Renilla normaliser, rep 1":816,"outcome":"inactive"}
{"Target gene":"rig","dsRNA no.":1,"E2F firefly, rep 1":73861,"Renilla normaliser, rep 1":3582,"outcome":"inactive"}
{"Target gene":"rig","dsRNA no.":2,"E2F firefly, rep 1":94170,"Renilla normaliser, rep 1":3389,"outcome":"inactive"}
{"Target gene":"Snm1","dsRNA no.":1,"E2F firefly, rep 1":69099,"Renilla normaliser, rep 1":4113,"outcome":"inactive"}
{"Target gene":"CG34229","dsRNA no.":1,"E2F firefly, rep 1":96126,"Renilla normaliser, rep 1":4261,"outcome":"inactive"}
{"Target gene":"CG9083","dsRNA no.":1,"E2F firefly, rep 1":77860,"Renilla normaliser, rep 1":3349,"outcome":"inactive"}
{"Target gene":"Fgop2","dsRNA no.":1,"E2F firefly, rep 1":82779,"Renilla normaliser, rep 1":3728,"outcome":"inactive"}
{"Target gene":"CG33773","dsRNA no.":1,"E2F firefly, rep 1":85570,"Renilla normaliser, rep 1":3005,"outcome":"inactive"}
{"Target gene":"CG8478","dsRNA no.":1,"E2F firefly, rep 1":1.31e5,"Renilla normaliser, rep 1":5506,"outcome":"inactive"}
{"Target gene":"Fbp2","dsRNA no.":1,"E2F firefly, rep 1":75315,"Renilla normaliser, rep 1":3079,"outcome":"inactive"}
{"Target gene":"enok","dsRNA no.":1,"E2F firefly, rep 1":93472,"Renilla normaliser, rep 1":3139,"outcome":"inactive"}
{"Target gene":"pico","dsRNA no.":1,"E2F firefly, rep 1":1.42e5,"Renilla normaliser, rep 1":6580,"outcome":"inactive"}
{"Target gene":"Cpr64Ad","dsRNA no.":1,"E2F firefly, rep 1":93863,"Renilla normaliser, rep 1":4365,"outcome":"inactive"}
{"Target gene":"CG30429","dsRNA no.":1,"E2F firefly, rep 1":1.35e5,"Renilla normaliser, rep 1":5539,"outcome":"inactive"}
{"Target gene":"CG7881","dsRNA no.":1,"E2F firefly, rep 1":1.05e5,"Renilla normaliser, rep 1":4449,"outcome":"inactive"}
{"Target gene":"Pink1","dsRNA no.":1,"E2F firefly, rep 1":7166,"Renilla normaliser, rep 1":764,"outcome":"inactive"}
{"Target gene":"OtopLb","dsRNA no.":1,"E2F firefly, rep 1":88657,"Renilla normaliser, rep 1":3797,"outcome":"inactive"}
{"Target gene":"myd","dsRNA no.":1,"E2F firefly, rep 1":48494,"Renilla normaliser, rep 1":2814,"outcome":"inactive"}
{"Target gene":"myd","dsRNA no.":2,"E2F firefly, rep 1":1.39e5,"Renilla normaliser, rep 1":6526,"outcome":"inactive"}
{"Target gene":"bur","dsRNA no.":1,"E2F firefly, rep 1":80386,"Renilla normaliser, rep 1":3702,"outcome":"inactive"}
{"Target gene":"CG12934","dsRNA no.":1,"E2F firefly, rep 1":1.38e5,"Renilla normaliser, rep 1":4402,"outcome":"inactive"}
{"Target gene":"CG12814","dsRNA no.":1,"E2F firefly, rep 1":63600,"Renilla normaliser, rep 1":3456,"outcome":"inactive"}
{"Target gene":"CG12814","dsRNA no.":2,"E2F firefly, rep 1":1.43e5,"Renilla normaliser, rep 1":6569,"outcome":"inactive"}
